PubChem BioAssay AID652243, Drosophila RNAi Screening Center, 2013

Aim: 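Fly genes required for human androgen receptor driven transcription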 (primary screen)
System: Drosophila S2R+ cells
Reagent: long dsRNA against Drosophila genes
Duration: 72 h (48 h, then 24 h hormone)
Challenge: synthetic androgen R1881 at 10 nM for 24 h
Measurement: 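Per-well raw luminescence of the androgen-driven firefly reporter and of the Renilla control, two replicates each, without normalisation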
Scale: firefly reporter light: higher = more light from androgen-responsive reporter; Renilla control light: higher = more constitutive control signal (cell number, transfection)
Rule for the call: 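Across duplicate plates, a knock-down whose log firefly/Renilla ratio shifted a set fold down or up from the GFP/LacZ control mean was a hit; the downward cut appears as both 1.5 and 3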
Calls: active = hit: reporter lowered or raised; inactive = no hit
The screen tested about 24,000 reagents; below is a random part of those that have a named target and a result. Of all reagents, 246 (1%) are marked active. 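Plates not normalised; calls are printed but the firefly/Renilla ratio behind them is not deposited; fold cut for lowering reported inconsistently.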 The raw values are shown without normalisation. Reagents against one gene are numbered here. A plus sign joins genes that one reagent is predicted to hit. Reagent sequences are not shown. Not given: the amount of reagent.

target gene	dsRNA no.	firefly reporter light, replicate 1	firefly reporter light, replicate 2	Renilla control light, replicate 1	Renilla control light, replicate 2	activity call
CG14383 (GeneID 41593)	1	34887	29038	7.32e5	7.65e5	inactive
Cpr47Ee (GeneID 36193)	1	7.41e5	1.09e6	1.08e6	1.35e6	inactive
Klp31E (GeneID 34422)	1	1.39e6	1.47e6	1.74e6	1.71e6	inactive
Tfb1 (GeneID 36598)	1	1.70e6	5.27e5	1.64e6	6.80e5	inactive
CG42380 + CG42379 + PIG-M + 1 more	1	2.36e5	1.22e5	2.70e5	1.74e5	inactive
CG42380 + CG42379 + PIG-M + 1 more	2	8.18e5	9.38e5	2.42e6	2.45e6	inactive
CG6996 (GeneID 40212)	1	2.46e5	1.93e5	2.58e6	2.67e6	inactive
CG10089 (GeneID 39517)	1	1.35e5	1.60e5	2.43e6	1.93e6	inactive
CG10089 (GeneID 39517)	2	4.29e5	4.12e5	8.17e5	7.71e5	inactive
TORIP (GeneID 40158)	1	24868	45508	4.04e5	4.12e5	inactive
Patj (GeneID 44100)	1	1.17e6	7.39e5	1.73e6	9.05e5	inactive
Patj (GeneID 44100)	2	2.97e5	2.67e5	1.57e6	1.48e6	active
CG9922 (GeneID 41708)	1	2.21e5	2.51e5	3.41e6	3.46e6	inactive
CG9922 (GeneID 41708)	2	5.57e5	4.36e5	1.56e6	1.36e6	inactive
vn (GeneID 38657)	1	6.28e5	6.61e5	8.48e5	9.83e5	inactive
vn (GeneID 38657)	2	3.36e5	3.87e5	3.68e5	4.65e5	inactive
Non2 (GeneID 38341)	1	4.17e5	5.97e5	5.90e5	9.49e5	inactive
Non2 (GeneID 38341)	2	1.03e6	1.06e6	1.03e6	8.78e5	inactive
CG6290 (GeneID 32827)	1	62872	1.01e5	7.23e5	8.52e5	inactive
CG6290 (GeneID 32827)	2	1.20e6	1.35e6	1.10e6	1.24e6	inactive
RfC3 (GeneID 34423)	1	2.01e5	1.75e5	1.24e6	1.23e6	inactive
mRpL54 (GeneID 37389)	1	7.37e5	5.96e5	2.11e6	2.40e6	inactive
CG4766 (GeneID 31533)	1	3.62e5	4.71e5	3.05e6	3.84e6	inactive
t-cup (GeneID 318986)	1	1.99e5	1.67e5	2.87e5	2.18e5	inactive
t-cup (GeneID 318986)	2	2.52e5	3.23e5	5.17e5	8.71e5	inactive
CG5958 (GeneID 34022)	1	1.03e5	1.14e5	1.03e6	1.06e6	inactive
SLC5A11 (GeneID 34117)	1	7.00e5	1.01e6	1.14e6	1.23e6	inactive
RyR (GeneID 49090)	1	2.80e5	2.41e5	1.87e6	1.27e6	inactive
CG33285 (GeneID 2768988)	1	1.00e5	66675	3.20e5	1.88e5	inactive
CG33285 (GeneID 2768988)	2	6.80e5	4.87e5	8.57e5	6.11e5	inactive
CG15465 (GeneID 31434)	1	2.81e5	3.12e5	2.17e6	2.02e6	inactive
CG15465 (GeneID 31434)	2	1.76e5	1.60e5	5.94e5	5.37e5	inactive
CG6790 (GeneID 41388)	1	43447	40536	3.71e5	5.12e5	inactive
CG10700 (GeneID 35183)	1	1.39e5	1.50e5	1.33e6	1.70e6	inactive
CG14606 (GeneID 40866)	1	46414	45205	1.13e6	1.03e6	inactive
vvl (GeneID 38752)	1	1.73e5	80132	2.12e6	1.50e6	inactive
vvl (GeneID 38752)	2	2.74e5	2.02e5	7.05e5	4.44e5	inactive
CG8319 (GeneID 41165)	1	52789	1.06e5	1.75e6	1.80e6	inactive
CG8319 (GeneID 41165)	2	5.73e5	7.71e5	9.21e5	1.05e6	inactive
CG34353 (GeneID 5740590)	1	2.77e5	2.57e5	2.96e6	3.55e6	inactive
CG34353 (GeneID 5740590)	2	2.72e5	2.63e5	2.03e6	3.07e6	inactive
CG34353 (GeneID 5740590)	3	2.60e5	2.23e5	2.99e6	2.96e6	inactive
CG34353 (GeneID 5740590)	4	2.06e5	2.54e5	2.15e6	2.47e6	inactive
CG34353 (GeneID 5740590)	5	6.44e5	1.21e6	7.66e5	1.11e6	inactive
CG34353 (GeneID 5740590)	6	3.11e5	3.64e5	1.02e6	6.79e5	inactive
CG34353 (GeneID 5740590)	7	8.17e5	8.92e5	8.54e5	1.05e6	inactive
zuc (GeneID 34609)	1	6.17e5	7.27e5	1.85e6	2.35e6	inactive
CG16700 (GeneID 32694)	1	2.46e5	2.98e5	3.06e6	3.13e6	inactive
CG9673 (GeneID 32649)	1	1.74e5	3.86e5	2.18e6	2.98e6	inactive
CG14062 (GeneID 43389)	1	1.78e5	1.18e5	1.98e6	2.34e6	inactive
CG14062 (GeneID 43389)	2	2.70e5	3.03e5	6.77e5	7.35e5	inactive
Cpr64Ad (GeneID 38511)	1	1.86e5	1.80e5	1.91e6	2.16e6	inactive
Cpr64Ad (GeneID 38511)	2	9.41e5	6.15e5	7.99e5	8.44e5	inactive
gig (GeneID 40201)	1	41719	52447	2.62e5	2.14e5	inactive
gig (GeneID 40201)	2	6.75e5	5.43e5	1.87e6	1.55e6	inactive
Zip71B (GeneID 39626)	1	1.68e5	1.65e5	1.83e6	1.49e6	inactive
Zip71B (GeneID 39626)	2	6.89e5	8.37e5	1.06e6	1.06e6	inactive
CG13021 (GeneID 31323)	1	2.88e5	3.72e5	2.89e6	2.74e6	inactive
